# Reference: the supplement of paper PMC11006884
# Chains of the proteins cited; added tags and fusions are not shown. Lines headed by an entry give the natural chain unless they say otherwise; changes in a name come on top.
# UniProt Q9Y487, whole entry: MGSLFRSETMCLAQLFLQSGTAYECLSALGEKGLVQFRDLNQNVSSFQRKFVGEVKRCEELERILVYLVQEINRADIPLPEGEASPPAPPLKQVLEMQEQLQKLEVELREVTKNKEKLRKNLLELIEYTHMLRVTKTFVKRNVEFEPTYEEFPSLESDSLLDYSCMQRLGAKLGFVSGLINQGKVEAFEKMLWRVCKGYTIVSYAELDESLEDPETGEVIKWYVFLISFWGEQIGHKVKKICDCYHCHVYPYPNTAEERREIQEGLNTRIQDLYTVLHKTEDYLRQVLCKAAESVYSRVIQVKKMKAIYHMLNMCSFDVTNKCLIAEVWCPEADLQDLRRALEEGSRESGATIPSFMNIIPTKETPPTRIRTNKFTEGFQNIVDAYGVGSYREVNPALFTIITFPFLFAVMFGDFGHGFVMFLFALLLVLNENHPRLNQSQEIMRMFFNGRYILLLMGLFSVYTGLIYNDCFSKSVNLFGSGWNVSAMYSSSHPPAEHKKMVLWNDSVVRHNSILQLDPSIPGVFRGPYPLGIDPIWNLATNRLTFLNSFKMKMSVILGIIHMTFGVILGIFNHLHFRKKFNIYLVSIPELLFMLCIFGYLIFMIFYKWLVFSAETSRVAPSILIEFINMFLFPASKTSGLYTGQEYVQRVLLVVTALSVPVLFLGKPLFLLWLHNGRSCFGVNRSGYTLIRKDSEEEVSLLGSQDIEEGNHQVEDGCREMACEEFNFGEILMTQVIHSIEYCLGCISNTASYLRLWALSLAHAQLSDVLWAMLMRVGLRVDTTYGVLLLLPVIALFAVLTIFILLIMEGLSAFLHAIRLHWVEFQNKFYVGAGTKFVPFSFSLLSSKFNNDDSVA
# UniProt Q9Y324: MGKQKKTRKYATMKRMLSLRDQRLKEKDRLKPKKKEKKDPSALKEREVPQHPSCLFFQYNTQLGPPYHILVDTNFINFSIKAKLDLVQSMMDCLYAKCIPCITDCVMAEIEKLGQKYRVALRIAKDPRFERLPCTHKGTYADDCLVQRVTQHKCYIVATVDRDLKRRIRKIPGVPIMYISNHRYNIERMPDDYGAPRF
# UniProt Q9Y262, whole entry: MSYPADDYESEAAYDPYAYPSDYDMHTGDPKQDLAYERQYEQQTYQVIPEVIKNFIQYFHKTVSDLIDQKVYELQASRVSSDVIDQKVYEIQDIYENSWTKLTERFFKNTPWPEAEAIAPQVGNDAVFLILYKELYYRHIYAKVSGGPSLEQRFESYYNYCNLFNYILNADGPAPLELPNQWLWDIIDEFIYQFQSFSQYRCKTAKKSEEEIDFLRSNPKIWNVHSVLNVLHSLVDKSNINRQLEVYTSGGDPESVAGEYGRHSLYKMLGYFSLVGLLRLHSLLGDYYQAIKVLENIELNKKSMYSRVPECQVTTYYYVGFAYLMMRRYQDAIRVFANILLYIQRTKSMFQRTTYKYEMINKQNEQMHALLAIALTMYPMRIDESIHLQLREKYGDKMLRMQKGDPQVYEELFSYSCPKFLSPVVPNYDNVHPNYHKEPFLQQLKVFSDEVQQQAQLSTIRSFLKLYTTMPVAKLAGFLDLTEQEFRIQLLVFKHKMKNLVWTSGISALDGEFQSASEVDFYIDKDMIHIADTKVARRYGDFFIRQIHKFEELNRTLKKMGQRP
# UniProt Q9UPN9: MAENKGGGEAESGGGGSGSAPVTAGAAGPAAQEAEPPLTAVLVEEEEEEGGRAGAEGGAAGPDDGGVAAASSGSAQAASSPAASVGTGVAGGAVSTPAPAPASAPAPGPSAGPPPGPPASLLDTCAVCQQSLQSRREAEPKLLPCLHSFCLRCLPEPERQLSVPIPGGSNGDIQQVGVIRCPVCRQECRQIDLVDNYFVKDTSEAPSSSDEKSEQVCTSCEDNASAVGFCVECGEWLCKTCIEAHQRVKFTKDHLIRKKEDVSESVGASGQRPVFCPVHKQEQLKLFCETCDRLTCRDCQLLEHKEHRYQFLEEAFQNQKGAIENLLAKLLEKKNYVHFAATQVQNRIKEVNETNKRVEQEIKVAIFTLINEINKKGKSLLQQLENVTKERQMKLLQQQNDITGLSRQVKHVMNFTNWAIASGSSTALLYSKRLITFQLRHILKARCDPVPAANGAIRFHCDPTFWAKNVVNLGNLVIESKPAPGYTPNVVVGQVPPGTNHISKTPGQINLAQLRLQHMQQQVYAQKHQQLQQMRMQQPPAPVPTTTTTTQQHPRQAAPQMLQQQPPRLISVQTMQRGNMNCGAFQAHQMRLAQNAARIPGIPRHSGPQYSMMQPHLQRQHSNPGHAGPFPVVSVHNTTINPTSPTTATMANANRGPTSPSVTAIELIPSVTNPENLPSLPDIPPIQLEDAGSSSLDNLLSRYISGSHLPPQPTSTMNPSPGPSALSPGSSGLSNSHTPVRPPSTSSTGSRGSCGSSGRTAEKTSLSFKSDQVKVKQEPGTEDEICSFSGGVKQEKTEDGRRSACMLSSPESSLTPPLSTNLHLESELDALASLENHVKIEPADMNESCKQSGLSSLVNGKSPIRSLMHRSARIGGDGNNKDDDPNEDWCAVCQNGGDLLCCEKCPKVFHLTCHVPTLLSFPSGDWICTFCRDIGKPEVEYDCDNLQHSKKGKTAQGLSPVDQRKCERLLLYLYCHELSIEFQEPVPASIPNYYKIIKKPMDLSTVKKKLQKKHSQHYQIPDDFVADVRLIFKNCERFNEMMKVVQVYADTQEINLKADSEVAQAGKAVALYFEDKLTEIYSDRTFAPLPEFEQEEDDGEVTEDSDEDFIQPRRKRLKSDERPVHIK
# UniProt Q9Y2H0: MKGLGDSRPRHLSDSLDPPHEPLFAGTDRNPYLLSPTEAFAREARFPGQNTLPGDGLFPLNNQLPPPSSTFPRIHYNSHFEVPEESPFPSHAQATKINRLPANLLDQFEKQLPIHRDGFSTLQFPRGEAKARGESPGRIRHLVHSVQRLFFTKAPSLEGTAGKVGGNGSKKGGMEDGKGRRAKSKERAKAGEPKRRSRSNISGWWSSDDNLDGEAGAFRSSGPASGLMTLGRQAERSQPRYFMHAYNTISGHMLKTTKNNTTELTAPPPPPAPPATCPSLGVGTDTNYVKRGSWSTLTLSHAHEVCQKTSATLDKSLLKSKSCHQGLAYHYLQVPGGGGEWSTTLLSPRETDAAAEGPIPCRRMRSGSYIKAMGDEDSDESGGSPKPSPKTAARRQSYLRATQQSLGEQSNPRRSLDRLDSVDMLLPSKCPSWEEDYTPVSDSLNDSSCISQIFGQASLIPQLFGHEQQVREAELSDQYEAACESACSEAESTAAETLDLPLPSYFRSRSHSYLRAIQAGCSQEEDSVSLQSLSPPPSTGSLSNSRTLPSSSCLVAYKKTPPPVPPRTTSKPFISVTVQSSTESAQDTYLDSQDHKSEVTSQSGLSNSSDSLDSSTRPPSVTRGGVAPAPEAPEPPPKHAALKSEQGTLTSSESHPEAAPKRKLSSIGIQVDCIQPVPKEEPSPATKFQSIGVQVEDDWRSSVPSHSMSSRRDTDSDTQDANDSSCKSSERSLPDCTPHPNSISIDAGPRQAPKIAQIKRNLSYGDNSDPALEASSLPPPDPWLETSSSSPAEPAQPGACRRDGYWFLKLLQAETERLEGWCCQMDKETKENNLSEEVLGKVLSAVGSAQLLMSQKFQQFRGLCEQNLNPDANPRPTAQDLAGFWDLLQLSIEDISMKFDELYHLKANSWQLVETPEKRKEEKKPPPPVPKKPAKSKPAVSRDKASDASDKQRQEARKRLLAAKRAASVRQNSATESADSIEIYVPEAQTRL
# UniProt Q9Y3P9: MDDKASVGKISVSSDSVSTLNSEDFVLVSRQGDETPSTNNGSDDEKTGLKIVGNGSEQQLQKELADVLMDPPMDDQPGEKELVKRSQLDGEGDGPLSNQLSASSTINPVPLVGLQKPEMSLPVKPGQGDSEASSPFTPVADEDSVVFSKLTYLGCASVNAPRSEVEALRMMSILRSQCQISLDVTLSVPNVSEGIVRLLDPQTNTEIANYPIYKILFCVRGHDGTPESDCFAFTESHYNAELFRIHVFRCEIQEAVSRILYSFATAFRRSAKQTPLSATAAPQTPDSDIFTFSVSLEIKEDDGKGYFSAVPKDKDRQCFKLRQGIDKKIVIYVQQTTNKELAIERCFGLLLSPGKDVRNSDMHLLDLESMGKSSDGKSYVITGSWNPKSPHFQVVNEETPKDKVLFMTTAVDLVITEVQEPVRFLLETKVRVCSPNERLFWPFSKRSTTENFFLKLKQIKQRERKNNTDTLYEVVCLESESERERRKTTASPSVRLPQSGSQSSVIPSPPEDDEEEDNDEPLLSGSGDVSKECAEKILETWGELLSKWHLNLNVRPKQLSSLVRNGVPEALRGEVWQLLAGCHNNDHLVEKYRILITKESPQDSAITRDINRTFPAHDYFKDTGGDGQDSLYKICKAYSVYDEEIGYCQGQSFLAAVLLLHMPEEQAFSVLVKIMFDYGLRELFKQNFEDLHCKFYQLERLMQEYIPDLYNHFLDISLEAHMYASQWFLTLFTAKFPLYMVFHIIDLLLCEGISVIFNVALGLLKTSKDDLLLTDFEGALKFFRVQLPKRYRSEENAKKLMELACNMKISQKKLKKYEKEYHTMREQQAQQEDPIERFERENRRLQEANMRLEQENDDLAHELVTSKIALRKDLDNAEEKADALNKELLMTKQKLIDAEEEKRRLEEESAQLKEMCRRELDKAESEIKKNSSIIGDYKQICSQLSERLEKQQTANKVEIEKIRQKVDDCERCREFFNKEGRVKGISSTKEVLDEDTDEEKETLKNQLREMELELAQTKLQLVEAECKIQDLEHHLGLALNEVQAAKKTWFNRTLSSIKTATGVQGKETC
# UniProt Q9UKN8: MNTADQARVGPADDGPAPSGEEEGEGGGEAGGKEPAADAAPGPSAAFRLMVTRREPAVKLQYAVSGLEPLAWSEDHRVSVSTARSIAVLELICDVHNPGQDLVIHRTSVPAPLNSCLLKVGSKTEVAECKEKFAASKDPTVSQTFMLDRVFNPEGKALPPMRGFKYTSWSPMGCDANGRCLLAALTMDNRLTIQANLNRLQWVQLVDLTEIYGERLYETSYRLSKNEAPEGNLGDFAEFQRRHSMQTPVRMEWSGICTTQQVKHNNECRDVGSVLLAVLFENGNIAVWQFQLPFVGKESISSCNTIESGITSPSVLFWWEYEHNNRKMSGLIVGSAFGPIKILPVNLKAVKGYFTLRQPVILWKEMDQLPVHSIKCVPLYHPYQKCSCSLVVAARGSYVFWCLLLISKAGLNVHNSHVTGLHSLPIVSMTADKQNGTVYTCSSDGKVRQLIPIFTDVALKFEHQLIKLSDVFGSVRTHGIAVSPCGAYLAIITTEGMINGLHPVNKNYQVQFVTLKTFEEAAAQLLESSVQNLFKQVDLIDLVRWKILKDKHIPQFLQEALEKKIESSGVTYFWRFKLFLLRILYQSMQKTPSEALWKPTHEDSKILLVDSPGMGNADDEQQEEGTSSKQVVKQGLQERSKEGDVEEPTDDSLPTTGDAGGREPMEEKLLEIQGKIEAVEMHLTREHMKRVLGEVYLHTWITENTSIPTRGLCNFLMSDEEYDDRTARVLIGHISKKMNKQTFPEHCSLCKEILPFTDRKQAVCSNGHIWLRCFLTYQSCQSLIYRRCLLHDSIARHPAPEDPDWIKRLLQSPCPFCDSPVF
# UniProt Q9UJU6: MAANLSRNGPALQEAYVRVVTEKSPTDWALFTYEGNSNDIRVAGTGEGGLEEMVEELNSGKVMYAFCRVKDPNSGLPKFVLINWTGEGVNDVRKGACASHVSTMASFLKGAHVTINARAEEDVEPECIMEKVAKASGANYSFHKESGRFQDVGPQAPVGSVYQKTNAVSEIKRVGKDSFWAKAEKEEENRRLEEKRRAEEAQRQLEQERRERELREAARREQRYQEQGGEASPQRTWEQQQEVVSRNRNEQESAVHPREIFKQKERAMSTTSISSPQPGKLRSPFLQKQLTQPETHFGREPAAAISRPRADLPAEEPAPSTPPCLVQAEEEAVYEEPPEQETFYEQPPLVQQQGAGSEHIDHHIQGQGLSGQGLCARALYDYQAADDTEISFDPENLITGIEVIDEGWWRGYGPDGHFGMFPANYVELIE
# UniProt Q9Y230, whole entry: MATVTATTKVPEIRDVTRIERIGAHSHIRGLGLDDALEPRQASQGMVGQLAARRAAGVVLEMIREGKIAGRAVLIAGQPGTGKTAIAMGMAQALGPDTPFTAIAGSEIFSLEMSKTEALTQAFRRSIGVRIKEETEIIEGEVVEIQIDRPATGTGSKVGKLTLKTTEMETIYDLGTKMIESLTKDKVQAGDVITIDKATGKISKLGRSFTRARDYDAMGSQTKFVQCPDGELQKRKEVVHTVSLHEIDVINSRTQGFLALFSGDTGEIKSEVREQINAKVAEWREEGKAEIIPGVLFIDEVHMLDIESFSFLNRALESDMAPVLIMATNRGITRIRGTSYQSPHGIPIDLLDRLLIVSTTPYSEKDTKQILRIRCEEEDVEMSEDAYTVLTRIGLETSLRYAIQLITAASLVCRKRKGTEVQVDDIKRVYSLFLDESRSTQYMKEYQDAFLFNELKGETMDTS
# This is a selection; strong and weak results do not stand in their true shares.
# Compound: COC(=O)C#Cc1ccccc1 [methyl 3-phenylpropiolate]
# Experiment: log2 ratio of iodoacetamide-alkyne labeling of the cysteine site, DMSO over compound (competition); higher = stronger covalent engagement of the cysteine by the compound, active = 1 or more
# Conditions: 500 µM; treatment time 1 h; system: HEK293T cell lysate
# In short: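 For each cysteine, the log2 competition ratio is mean control-channel reporter intensity over mean compound-channel reporter intensity. HEK293T lysate (2 mg/mL) was exposed to vehicle or electrophile (500 µM, 1 h, ambient temperature), labelled with iodoacetamide alkyne (1 h), clicked to sCIP-TMT reagents, digested overnight with trypsin at 37 °C, streptavidin-enriched and analysed by Orbitrap Eclipse LC-MS/MS with FAIMS and FragPipe. Cysteines quantified in only one of three replicates, each with duplicate channels, were excluded.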
row,Target,log2 ratio of iodoacetamide-alkyne labeling
1,DDX52 C536 (UniProt Q9Y2R4),inactive: 0.566
2,ATP6V0A2 C165 (UniProt Q9Y487),inactive: 0.321
3,FCF1 C154 (UniProt Q9Y324),inactive: 0.167
4,INO80 C1049 (UniProt Q9ULG1),inactive: 0.492
5,DDX41 C568 (UniProt Q9UJV9),inactive: 0.462
6,ANKRD50 C87 (UniProt Q9ULJ7),inactive: 0.248
7,VDAC3 C36 (UniProt Q9Y277),inactive: 0.628
8,UniProt Q9Y2L5_C265,inactive: 0.104
9,MTF2 C437 (UniProt Q9Y483),inactive: 0.686
10,TBC1D24 C89 (UniProt Q9ULP9),inactive: -0.0393
11,EIF3L C417 (UniProt Q9Y262),inactive: 0.6
12,TRIM33 C150 (UniProt Q9UPN9),inactive: 0.21
13,HECTD1 C2579 (UniProt Q9ULT8),inactive: 0.335
14,DLGAP4 C726 (UniProt Q9Y2H0),inactive: 0.74
15,RABGAP1 C1026 (UniProt Q9Y3P9),inactive: -0.252
16,PRR12 C112 (UniProt Q9ULL5),inactive: 0.298
17,CHORDC1 C59 (UniProt Q9UHD1),inactive: -0.0978
18,GTF3C4 C116 (UniProt Q9UKN8),inactive: 0.222
19,DBNL C127 (UniProt Q9UJU6),inactive: 0.245
20,RUVBL2 C227 (UniProt Q9Y230),inactive: 0.198
21,UniProt Q9UPN4_C218,inactive: 0.212

# Another view of part of the listing above.
row | Target | log2 ratio of iodoacetamide-alkyne labeling
7 | VDAC3 C36 (UniProt Q9Y277) | inactive: 0.628
16 | PRR12 C112 (UniProt Q9ULL5) | inactive: 0.298
